According to US9295732B2 (CAYLA, priority 2013, dated 2016):

Test: general procedure: Fmoc solid-phase peptide synthesis; 2-chlorotrityl chloride resin (Fmoc-Lys(Boc)-O-2-CTC resin); HATU or HBTU or TBTU with DIEA
Conditions: late stage modification step

## (2S,5S,8S,11S,14S,17R)-17-amino-5-(4-(4-((6-amino-2-(butylamino)-8-hydroxy-9H-purin-9-yl)methyl)benzamido)butyl)-2,8,11-tris(4-aminobutyl)-14-(hydroxymethyl)-4,7,10,13,16,24-hexaoxo-21-(palmitoyloxy)-23-oxa-19-thia-3,6,9,12,15-pentaaza
  step yield: 98%
